Measured data: PubChem BioAssay AID1259308 (NCATS, 2017)

Purpose: 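Genes whose loss raises luciferase production in HEK293 cells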 (primary screen)
System: human HEK293 embryonic kidney cells stably expressing firefly luciferase (HEK-CMV-Luc2-Hygro)
Reagents: single siRNA against human genes, 0.8 pmol siRNA per well
Timing: 72 h
Read-out: 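Luciferase light (ONE-Glo) measured on one replicate plate set and viability (CellTiter-Glo) on the other, scaled to a negative control siRNA, with robust z-scores and luciferase per cell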
Reading the numbers: total luciferase, z-score and total luciferase, % of control: higher = more reporter protein produced
Rule for the call: 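Active when the median/MAD z-score for overall luciferase is greater than 3; a gene was taken forward for validation with new siRNAs if at least two of its three siRNAs passed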
Calls: active = raised luciferase; inactive = no rise
The deposit covers about 59,000 reagents; below is a random part of them. Over the whole deposit, about 1,510 (2.6%) were called active. 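Calls use total luciferase alone and ignore viability, so some active siRNAs may act by altering cell number.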 A number with no mark means an inactive call. The numbers tell different reagents against one gene apart. Not all columns of the deposit are shown.

Silencing of OR8H1 #1 gave: total luciferase, z-score -1.26; total luciferase, % of control 56.8.
Depletion of OR8H1 #2 resulted in: total luciferase, z-score -0.386; total luciferase, % of control 74.2.
For OR8H1 #3 the deposit lists total luciferase, z-score -0.0903; total luciferase, % of control 80.1.
Depletion of ACP6 #1 came out at: total luciferase, z-score -0.725; total luciferase, % of control 67.5.
Knock-down of ACP6 #2 came out at: total luciferase, z-score -0.0145; total luciferase, % of control 81.6.
With knock-down of ACP6 #3 the results were total luciferase, z-score -0.248; total luciferase, % of control 76.9.

Part of the list above, limited to “total luciferase, % of control”:
ACP6 #1	67.5
ACP6 #2	81.6

The list goes on:
After knock-down of NR2E3 #1 the results were total luciferase, z-score -0.498; total luciferase, % of control 72.
Against NR2E3 #2 the deposit lists total luciferase, z-score 1.06; total luciferase, % of control 103.
After knock-down of NR2E3 #3 the results were total luciferase, z-score 1.13; total luciferase, % of control 104.
CBLIF #1 showed total luciferase, z-score 0.335; total luciferase, % of control 88.5.
After knock-down of CBLIF #2, the screen gave total luciferase, z-score 0.0584; total luciferase, % of control 83.
Depletion of CBLIF #3 gave: total luciferase, z-score -0.039; total luciferase, % of control 81.1.
